Experimental data published in paper PMC8885419, “Identification and mechanism of G protein-biased ligands for chemokine receptor CCR1” (Nature Chemical Biology, 2021).
Results are given in words; binding and its absence hold for the method and conditions named. In cells and extracts the contact can be indirect. Some entries that bind do so weakly or less than the wild type. For some assays here: Where a sequence is shown, tags or fusion partners need not be part of it.

What was measured:
[1] = target: T1, CCR1 (1–327 aa) with Rluc8 at the C terminal via a 6*His linker (human) (UniProt P32246); assay: FRET or BRET; BRET; CCR1 (1–327)-Rluc8 and Venus-β-arrestin2 in HEK293T cells; stimulated with CCL15 truncations, 10^-13 to 10^-6 M, 40 min
T1 sequence: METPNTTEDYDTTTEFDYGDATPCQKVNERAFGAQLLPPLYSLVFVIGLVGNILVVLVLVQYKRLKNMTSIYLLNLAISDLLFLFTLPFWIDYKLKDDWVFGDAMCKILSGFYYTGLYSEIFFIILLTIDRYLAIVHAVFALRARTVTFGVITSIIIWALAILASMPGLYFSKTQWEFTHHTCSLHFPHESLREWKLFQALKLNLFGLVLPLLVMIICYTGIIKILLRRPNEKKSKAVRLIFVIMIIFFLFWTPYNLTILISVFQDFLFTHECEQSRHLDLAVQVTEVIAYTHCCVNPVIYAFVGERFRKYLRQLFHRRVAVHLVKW

[2] = target: T2, CCR1 (1–327 aa) with LgBiT at the C terminal (human) (UniProt P32246); assay: split reporter; CCR1 (1–327)-LgBiT and SmBiT-β-arrestin2 in HEK293T cells; stimulated with CCL15 truncations, 10^-13 to 10^-6 M; luminescence with coelenterazine h
T2 sequence: T1 sequence

Row | binding [1] | binding [2] | Substance
1 | binds |  | β-arrestin2 with Venus at the N terminal (from UniProt P32121 1-409)
2 |  | binds | β-arrestin2 with SmBiT fused at the N terminus (from UniProt P32121 1-409)
